Some of these results come from one statement about several compounds together.
Biological target: novel receptor obtainable from rat forebrain tissue
Experiment: Binding assay: displacement of [3H]-Compound A from rat forebrain tissue
Conditions: competition with [3H]-Compound A (usually 20 nM), rat whole forebrain tissue, room temperature, 1 hour

pKi, > 7.5:
CC(C)Oc1ccc(C(=O)Nc2ccc3c(c2Cl)CN(C)CC3(C)C)cc1Br [Example E97, N-(8-Chloro-2,4,4-trimethyl-1,2,3,4-tetrahydroisoquinolin-7-yl)-3-bromo-4-iso-propoxybenzamide]
COc1ccc(C(=O)Nc2ccc3c(c2Cl)CN(C)CC3(C)C)cc1C(F)(F)F [Example E101, N-(8-Chloro-2,4,4-trimethyl-1,2,3,4-tetrahydroisoquinolin-7-yl)-4-methoxy-3-trifluoromethylbenzamide]
CCOc1ccc(C(=O)Nc2ccc3c(c2Cl)CN(C)CC3(C)C)cc1Cl [Example E102, N-(8-Chloro-2,4,4-trimethyl-1,2,3,4-tetrahydroisoquinolin-7-yl)-3-chloro-4-ethoxybenzamide]
CCOc1ccc(C(=O)Nc2ccc3c(c2Cl)CN(C)CC3(C)C)cc1Br [Example E103, N-(8-Chloro-2,4,4-trimethyl-1,2,3,4-tetrahydroisoquinolin-7-yl)-3-bromo-4-ethoxybenzamide]
(±)N(1-iso-Propyl-methyl1,2,3,4-tetrahydroisoquinolin-7-yl)-4-methoxy-3-trifluoromethylbenzamide [Example E64]
